Measurements published in PubChem BioAssay AID268 (DTP/NCI, 2004).
The list is a part of this screen's results and no random one: it covers a few groups of compounds. Other doses and runs of a compound may be missing. T/C: endpoint of the treated group in % of that of the vehicle group. Schedules are NCI's codes, read here as Q, the interval in days (D) or hours (H), X, the number of doses. Some doses were run more than once; the values are given in rising order. Some T/C values are followed by the survivors on the day toxicity was checked; where neither a count nor a note follows, no animal had died by that day. Some entries give survivors of the animals treated and no T/C: the source files T/C as zero there, which appears to mark a toxic dose or a test without result, not a measured value. Survivors were counted at the toxicity check; its day is shown where the source gives one, and later deaths do not show.

Tested on: CD2F1 mice, P1798 lymphosarcoma sc, tumor weight T/C
Assay: NCI In Vivo Anticancer Drug Screen. Data for tumor model P1798 Lymphosarcoma (subcutaneous) in CD2F1 (CDF1) mice
Conditions: T/C endpoint: mean tumor weight, schedule: Q01DX010 (ip), vehicle: saline, higher T/C = larger tumour
Procedure: The antitumor activity of compounds was measured in mice bearing transplantable tumors. Survival or tumor size were measured and the results are expressed as the measurement made in the treated group (T) divided by the measurement made in the vehicle treated control group (C). The tumor model used in this assay is P1798 Lymphosarcoma (subcutaneous) in CD2F1 (CDF1) mice

Q: Which T/C (dose: 8.0 mg/kg/injection, evaluated on day 12) does the source give for CN(N=O)C(=N)N[N+](=O)[O-] here?
A: Its T/C is 90 and 103 % of control.

Q: And the T/C (dose: 16.0 mg/kg/injection, evaluated on day 12)?
A: The T/C was 39 [5 of 6 alive] and 67 % of control.

Q: What about the survivor count (dose: 32.0 mg/kg/injection) of the same molecule?
A: The survivor count was 0 of 6 and 1 of 6.

Q: What about the survivor count (dose: 64.0 mg/kg/injection) of the same molecule?
A: Its survivor count is 0 of 6.

Q: With NC1CCCCC1.O=P(O)(N(CCCl)CCCl)N1CC1 as the molecule, how does the T/C (dose: 1.25 mg/kg/injection, evaluated on day 12) read?
A: Its T/C is 73 % of control.

Q: What about the T/C (dose: 2.5 mg/kg/injection, evaluated on day 12) of the same molecule?
A: Its T/C is 95 % of control.

Q: And the T/C (dose: 5.0 mg/kg/injection, evaluated on day 12)?
A: The T/C was 63 % of control.

Q: And the T/C (dose: 10.0 mg/kg/injection, evaluated on day 12)?
A: The T/C was 37 % of control.

Q: How did the T/C (dose: 15.6 mg/kg/injection, evaluated on day 12) turn out when CC[C@H](C)[C@@H]1NC(=O)/C(=C(\C)O)C1=O was run?
A: Its T/C is 87 % of control.

Q: What about the T/C (dose: 15.6 mg/kg/injection, run until all animals had died) of the same molecule?
A: Its T/C is 114 % of control.

Q: And the T/C (dose: 31.3 mg/kg/injection, evaluated on day 12)?
A: Its T/C is 77 % of control.

Q: What about the T/C (dose: 31.3 mg/kg/injection, run until all animals had died) of the same molecule?
A: Its T/C is 104 % of control.

Q: And the T/C (dose: 62.5 mg/kg/injection, evaluated on day 12)?
A: The T/C was 96 % of control.

Q: And the T/C (dose: 62.5 mg/kg/injection, run until all animals had died)?
A: The T/C was 120 % of control.

Q: And the survivor count (dose: 125.0 mg/kg/injection)?
A: The survivor count was 0 of 6.

Q: And the T/C (dose: 125.0 mg/kg/injection, run until all animals had died)?
A: Its T/C is 128 % of control [5 of 6 alive].
